This experiment concerns the target T1, DYRK1A(h) (Homo sapiens, UniProt Q13627).
T1 construct: purchased Eurofins Scientific Inc. Korea (contract assay service)
The experiment can be described thus: In vitro enzymatic assay (Eurofins, radiometric 33P-ATP). It counts as biochemical. As for the experimental part:
Enzymatic assays were performed by Eurofins Scientific Inc. Korea (Brussels, Belgium). […] The reaction was initiated by the addition of the MgATP mix. After incubation for 40 min at room temperature, the reaction was stopped by the addition of 3% phosphoric acid solution. Then, 10 μL of the reaction was then spotted onto a P30 filtermat and washed three times for 5 min in 75 mM phosphoric acid and once in methanol prior to drying and scintillation counting. […] All assays were performed in duplicate, and the average IC50 value was reported.

`O=C1NC(=O)C(c2ccccc2[N+](=O)[O-])=C1Nc1ccc(O)c(Cl)c1` [SB-415286, 3-((3-chloro-4-hydroxyphenyl)amino)-4-(2-nitrophenyl)-1H-pyrrole-2,5-dione, reference compound]: 445 nM corresponded to half-maximal inhibition (IC50).

For orientation: IC50 means the concentration that gives 50% inhibition.

(Values after paper PMC7554884, “Small Molecule Inhibitors of DYRK1A Identified by Computational and Experimental Approaches” (International Journal of Molecular Sciences, 2020).)
